Assay results as given in PubChem BioAssay AID2685 (National Center for Advancing Translational Sciences (NCATS), 2010).
About 2,100 (0.66%) of roughly 320,000 compounds were called active. This list was built around the results that the source calls inconclusive (neither active nor inactive); the mix of calls is not that of the screen. The call rests on the fitted dose curve; in most records, active means well fitted inhibition curve with a large enough effect in the signal ratio, with a control signal flat (not every such curve was filed as active); inconclusive means small, poorly fitted or top-dose-only effect, or effect the other way, or a change in a side signal; inactive means flat fitted curve, though single readings scatter; the % refers to the signal ratio. Potencies of inconclusive entries are doubtful fits and often do not repeat.

Assay: qHTS Assay for Lipid Storage Modulators in Drosophila S3 Cells
Details: BODIPY lipid droplet fluorescence, 18-24 h, cells fed with added oleic acid; lipid storage change, negative = inhibition: at 46.1 µM (top of the series) unless noted
Procedure, shortened: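 Drosophila S3 cells got compounds at several concentrations plus oleic acid (400 uM solution). Laser-scanning cytometry with 488 nm excitation read lipid droplets at 500-530 nm and cells at 575-640 nm. Percent activity was relative to 20 uM Triacsin C.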
On the % scale 0 is the no-effect control and ±100 the full control effect; potency means the concentration at half of the fitted maximal effect.

Row | Compound | lipid storage change, negative = inhibition | Potency
1 | CN(C)C(=O)C12CCC(C)(C(=O)C1Br)C2(C)C (configuration not stated) | inconclusive: -31.7% | –
2 | COc1ccc(/C=C(/NC(=O)c2ccccc2)C(=O)NCc2ccco2)cc1 | inconclusive: 14% | –
3 | CCOC(=O)c1cc(-c2ccccc2C)nn1Cc1cc(C)no1 | – | inconclusive: 6.51 µM [activator, partial curve, poor fit]
4 | Cc1cc(C)c(S(=O)(=O)N2CCN(C(=O)C3CC3)CC2)c(C)c1 | inconclusive | –
5 | OC(CNCCNc1ncccc1C(F)(F)F)Cn1ccc2ccccc21 (configuration not stated) | inconclusive: 3.23% | –
6 | O=C(Nc1ccccc1C(=O)NC1CCCCC1)c1ccccc1 | – | inconclusive: 6.51 µM [activator, partial curve, poor fit]
7 | CCN(CC)S(=O)(=O)c1ccc(NC(=O)CC(NC(C)=O)c2ccccc2)cc1 (configuration not stated) | – | inconclusive: 1.16 µM [falling, full curve, poor fit]
8 | CCOC(=O)N1CCC(Nc2c(OCC)c(=O)c2=O)CC1 | inconclusive: 3.6% [at 9.22 µM] | –
9 | COc1ccc(N(CC(=O)N2CCCCCC2)S(=O)(=O)c2ccccc2[N+](=O)[O-])c(OC)c1 | – | inconclusive: 29.1 µM [falling, single point]
10 | O=C1C2C(C(=O)N1CCc1ccccc1)C1C=CC2C12CC2 (configuration not stated) | – | active: 23.1 µM
11 | COCC(=O)N/N=C\c1cccc(OC)c1OC/C=C/c1ccccc1 | – | inconclusive: 29.1 µM [rising, single point]
12 | CCOc1cc(-n2cnnn2)c(OCC)cc1NC(=O)c1cnccn1 | – | inconclusive: 6.51 µM [activator, single point]
13 | Cc1cc(-c2ccccc2)c2c3c(cn2n1)c(=O)n(C)c(=O)n3C | – | inconclusive: 2.06 µM [falling, partial curve]
14 | Cc1ccn2cc(CSc3ccccc3N)nc2c1 | inconclusive: 22.8% | –
15 | COC(=O)C(NC(=O)c1ccc(F)cc1)(Nc1ncc(S(=O)(=O)c2ccc([N+](=O)[O-])cc2)s1)C(F)(F)F (configuration not stated) | inactive: 5.96% | –
16 | COc1ccc2nc(Nc3nc(CSc4nnc(C)s4)cc(=O)[nH]3)nc(C)c2c1 | inconclusive: 22.5% | –
17 | CCOc1ccc(NC(=O)Nc2cc(OCC(F)(F)F)cc(OCC(F)(F)F)c2)cc1 | – | active: 5.8 µM
18 | COc1ccc(C(C[N+](=O)[O-])n2nc(C)cc2C)cc1 (configuration not stated) | – | active: 5.17 µM
19 | O=S1(=O)N=C(N/N=C/c2cccs2)c2ccccc21 | inconclusive: 5.34% | –
20 | Cc1n[nH]c(C)c1CCc1nc2c3ccccc3nc(SCC(=O)Nc3ccccc3F)n2n1 | inconclusive: 449% | –
21 | Cc1cccc(C)c1NC(=O)CNCC(=O)N(C)C | – | inconclusive: 4.11 µM [falling, partial curve]
22 | COc1ccc(S(=O)(=O)NCc2ccncc2)cc1OC | – | inconclusive: 3.26 µM [activator, full curve]
23 | COc1ccc2c(c1)OC[C@H]1[C@@H]2N2C(=O)CNC(=O)[C@@]2(C)[C@H]1c1ccccc1 | inconclusive: 1.88% | –
24 | O=C(NCCc1ccccc1F)C1CCCN(c2nc3ccccc3s2)C1 (configuration not stated) | inconclusive: -0.432% | –
25 | O=C(c1cnn2c(C(F)F)cc(C3CC3)nc12)N1CCc2ccccc2C1 | – | inconclusive: 1.3 µM [activator, full curve]
26 | O=C(CN1CCN(S(=O)(=O)c2ccccc2C(F)(F)F)CC1)NCc1cccs1 | inconclusive | –

Row | Compound | lipid storage change, negative = inhibition | Potency
27 | Cc1ccc(S(=O)(=O)N2CCN(S(=O)(=O)N3CCOCC3)CC2)cc1C | – | inconclusive: 4.11 µM [falling, single point]
28 | COc1ccc(CNC(=O)COc2ccccc2C(=O)c2cnn(-c3ccccc3)c2)cc1OC | inconclusive: -25.7% | –
29 | CCN(CC)c1ccc(C2CC(=O)NC3=C2C(=O)CC(C)(C)C3)cc1 (configuration not stated) | inconclusive: 10.8% | –
30 | CCc1ccc2c(c1)C(O)(CC(=O)c1cccs1)C(=O)N2 (configuration not stated) | inconclusive: 20.3% [at 9.22 µM] | –
31 | CCC(=O)N1CCc2cc(Br)cc(S(=O)(=O)N3CCC(C(=O)NC(C)(C)C)CC3)c21 | inconclusive: -170% | –
32 | Cc1nnc(SCc2ccon2)n1-c1ccccc1 | inactive: -0.985% | –
33 | COc1cccc(CNC(=O)C2CCN(S(=O)(=O)c3cccc4nonc34)CC2)c1 | inconclusive: 5.42% | –
34 | Cc1ccc(C(=O)c2coc3ccc(OCC(=O)O)cc23)cc1 | inconclusive: -64.1% | –
35 | CC(=O)C1=C(C)NC(=O)CC1c1ccccc1Cl (configuration not stated) | inconclusive: -1.9% | –
36 | COc1ccccc1OCC(=O)N/N=C/c1c(O)ccc2ccccc12 | – | inconclusive: 6.51 µM [activator, single point]
37 | O=S(=O)(c1ccccc1)c1nc(Nc2ccccc2N2CCOCC2)sc1Cl | – | inconclusive: 0.259 µM [activator, full curve, poor fit]
38 | CCOC(=O)c1c(S(=O)(=O)N2CCN(C3CCCCC3)CC2)c(C)n(C)c1C | inconclusive: 63.2% | –
39 | Cc1ccc(N2C(=O)C3C4C=CC(CNC(=S)Nc5cccc(Cl)c5)(O4)C3C2=O)cc1 (configuration not stated) | inconclusive: 17.6% | –
40 | CC(=O)Nc1ccc2c(c1)nc(C)n2-c1ccccc1 | – | inconclusive: 7.31 µM [activator, partial curve]
41 | Cn1cc(S(=O)(=O)Nc2ccc(Br)cc2F)c(=O)n(C)c1=O | inconclusive: 19.9% [at 9.22 µM] | –
42 | C[n+]1cccc(C2C(C#N)=C(N)Oc3c2ccc2ccccc32)c1 (configuration not stated) | inconclusive: 17.6% | –
43 | O=c1c2ccccc2nc2ccc(N3CCOCC3)nn12 | inconclusive: -19% | –
44 | O=C(Nc1ccccn1)c1ccc(Cl)c(S(=O)(=O)N2CCOCC2)c1 | inactive: -1.8% | –
45 | CC(C)CN(C(=O)CSc1nc2ccccc2o1)c1c(N)n(Cc2ccccc2)c(=O)[nH]c1=O | inconclusive: -5.99% | –
46 | Cc1ccc(C(NC(=O)N2CCCC2)C(Cl)Cl)cc1F (configuration not stated) | inconclusive: 54% | –
47 | CCCCCc1ccc(OCCC[n+]2ccccc2)c(CCCCC)c1 | – | inconclusive: 29.1 µM [cytotoxic, single point]
48 | CCN(CC)S(=O)(=O)c1ccc(N2CCOCC2)c(NC(=O)CNCCc2ccccc2)c1 | inconclusive: 4.95% | –
49 | O=C(c1ccccc1)N1CCn2c1nc1ccccc12 | inactive: -6.04% | –
50 | O=C(c1ccccc1)c1cnc(Nc2ccc(Cl)c(Cl)c2)s1 | inconclusive: 18% | –
51 | O=C1CCC(C(=O)NCc2ccc3c(c2)OCO3)N1 (configuration not stated) | inconclusive: -20.3% | –
52 | O=C(Nc1sc2c(c1C(=O)O)CCC2)c1ccccc1Cl | inconclusive: 25.2% | –

Part of the list above in order of molecular weight, smallest number first.
Row | Compound | lipid storage change, negative = inhibition | Potency
52 | O=C(Nc1sc2c(c1C(=O)O)CCC2)c1ccccc1Cl | inconclusive: 25.2% | –
41 | Cn1cc(S(=O)(=O)Nc2ccc(Br)cc2F)c(=O)n(C)c1=O | inconclusive: 19.9% [at 9.22 µM] | –
7 | CCN(CC)S(=O)(=O)c1ccc(NC(=O)CC(NC(C)=O)c2ccccc2)cc1 (configuration not stated) | – | inconclusive: 1.16 µM [falling, full curve, poor fit]
17 | CCOc1ccc(NC(=O)Nc2cc(OCC(F)(F)F)cc(OCC(F)(F)F)c2)cc1 | – | active: 5.8 µM
45 | CC(C)CN(C(=O)CSc1nc2ccccc2o1)c1c(N)n(Cc2ccccc2)c(=O)[nH]c1=O | inconclusive: -5.99% | –

Additional compounds

Row | Compound | lipid storage change, negative = inhibition | Potency
53 | O=C(Nc1nc2ccc(F)cc2s1)C1CCN(S(=O)(=O)c2cc([N+](=O)[O-])ccc2Cl)CC1 | – | inconclusive: 4.11 µM [falling, single point]
54 | Cc1[nH]c(=O)c(C(=O)c2ccccc2O)cc1C(=O)O | inconclusive: -41.4% | –
55 | CSCCC(NC(=O)COc1ccccc1)C(=O)OCCOc1ccc(C)cc1 (configuration not stated) | inconclusive: 12% | –
56 | COc1cc(/C=C2\C(=O)ON=C2c2ccccc2)cc(OC)c1OC | inconclusive: 7.26% | –
57 | CCc1nnc(NC(=O)CCC(=O)Nc2ccc(OC)cc2OC)s1 | inconclusive: 85.5% | –
58 | O=C1CC(=O)NC(SCC(=O)Nc2ccccc2[N+](=O)[O-])=N1 | – | inconclusive: 5.8 µM [falling, full curve, poor fit]
59 | Nn1cc(-c2ccccc2)nc1SCC(=O)Nc1cccc(S(N)(=O)=O)c1 | inconclusive: 27.4% | –
60 | CCN1CCN(C(c2cc3cccc(C)c3[nH]c2=O)c2nnnn2Cc2ccccc2)CC1 (configuration not stated) | – | inconclusive: 0.0046 µM [falling, full curve, poor fit]
61 | CCOc1ccc(C(=S)NC2CCCCC2)cc1OC | inconclusive: -62.4% | –
62 | Cc1cc(C)c[n+](-c2nc([O-])sc2C=O)c1 | inconclusive: -17% | –
63 | COc1ccc(CNc2nc3c(c(=O)n(Cc4ccc(Cl)cc4)c(=O)n3C)n2C)cc1 | inconclusive: -12.6% | –
64 | O=C1CCC(=O)N1CC1CC2CCC1C2 (configuration not stated) | – | inconclusive: 29.1 µM [falling, single point]
65 | COc1ccc(CN2CCNC(=O)C2CC(=O)NCC2CCOCC2)c(C)c1C (configuration not stated) | inconclusive: 3.48% | –
66 | CC(C)(C)C(=O)NC(=S)N1CCCC1 | – | inconclusive: 0.103 µM [falling, full curve, poor fit]
67 | COc1ccc(C(=O)N2CCc3ccccc32)cc1S(=O)(=O)N1CCOCC1 | inconclusive: -34.6% | –
68 | CCN(CC)CCC#CC(O)(c1ccccc1)C1CCCCC1 (configuration not stated) | inconclusive: -25% | –
69 | Cc1cc(-c2n[nH]c(=S)n2-c2ccccc2)nn1C | inconclusive: 23.7% | –
70 | Cc1cc(=O)n2nc(N3CCC(C(=O)Nc4c(F)c(F)c(F)c(F)c4F)CC3)sc2n1 | inconclusive: 62.9% | –
71 | CCN(CC)CCn1c2c(c(SCC(=O)NCc3ccccc3)nc1=O)CCC2 | inconclusive: -3.49% | –
72 | O=C(c1ccccc1)N1CCCCC(Cl)C1=O (configuration not stated) | – | inconclusive: 0.731 µM [activator, single point]
73 | O=C(O)c1ccc(COc2c(F)c(F)cc(F)c2F)o1 | inconclusive: -66.7% | –
74 | Clc1ccccc1C1=CC(c2ccco2)n2ncnc2N1 (configuration not stated) | – | inconclusive: 1.3 µM [activator, full curve, poor fit]
75 | COc1ccc2oc(=O)cc(CN3CCOCC3)c2c1 | – | inconclusive: 6.51 µM [activator, single point]
76 | O=C(CC1S/C(=N/N=C/c2c[nH]c3ccc(OCc4ccccc4)cc23)NC1=O)Nc1ccccc1 (configuration not stated) | inconclusive: 11.4% | –
77 | Cc1cc(NS(=O)(=O)c2c(C(=O)N3CCOCC3)c(C)n(C)c2C)ccc1Br | – | inconclusive: 2.59 µM [activator, full curve]
